The results in this text go back to paper PMC8274602.

Amino acid sequences for entries named in this document (tags omitted). A change or cut given only in a name is not applied to a line headed by its entry.
UniProt P62937: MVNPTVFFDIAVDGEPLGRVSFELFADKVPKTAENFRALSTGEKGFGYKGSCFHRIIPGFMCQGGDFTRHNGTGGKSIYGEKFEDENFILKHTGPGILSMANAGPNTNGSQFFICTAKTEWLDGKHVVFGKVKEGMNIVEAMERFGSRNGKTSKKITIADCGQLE
UniProt P03418: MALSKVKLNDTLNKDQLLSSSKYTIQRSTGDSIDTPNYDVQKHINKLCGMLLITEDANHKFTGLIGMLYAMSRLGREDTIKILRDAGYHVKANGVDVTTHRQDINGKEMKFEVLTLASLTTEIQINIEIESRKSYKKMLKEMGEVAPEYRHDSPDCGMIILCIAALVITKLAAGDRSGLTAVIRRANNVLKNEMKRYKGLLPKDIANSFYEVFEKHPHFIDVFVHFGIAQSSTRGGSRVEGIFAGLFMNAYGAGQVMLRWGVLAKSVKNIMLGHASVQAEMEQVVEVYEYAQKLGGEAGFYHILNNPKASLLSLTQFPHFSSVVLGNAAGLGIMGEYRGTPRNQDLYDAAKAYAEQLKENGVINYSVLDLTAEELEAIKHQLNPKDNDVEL
UniProt P03421: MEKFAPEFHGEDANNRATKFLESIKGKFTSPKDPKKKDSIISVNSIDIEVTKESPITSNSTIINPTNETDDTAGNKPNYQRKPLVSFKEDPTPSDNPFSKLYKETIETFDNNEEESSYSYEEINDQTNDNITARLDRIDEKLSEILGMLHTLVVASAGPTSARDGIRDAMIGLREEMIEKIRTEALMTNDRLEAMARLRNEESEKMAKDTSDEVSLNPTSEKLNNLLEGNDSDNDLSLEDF

Results are given in words; binding and its absence hold for the method and conditions named. In cells and extracts the contact can be indirect. Some results given as binding are weak or reduced against the parent protein; the word gives no strength.

Test [1] addresses Myc-cypA-R55A (from pCDNA3.1-Myc-cypA-R55A) (UniProt P62937). The test is described as follows: co-IP; two plasmids cotransfected into HEK293T cells; Pierce classic magnetic IP/co-IP kit, Western blot. Background: In western blotting, separated proteins are transferred to a membrane and probed.
Test [2] addresses GST-RSV-N (RSV nucleoprotein from pCDNA3.1-GST-RSV-N) (human respiratory syncytial virus) (UniProt P03418). The test is described as follows: co-IP; HEK293T cells cotransfected with three RSV plasmids (RSV-N, RSV-P, RSV-M2-1) and Myc-cypA or Myc-cypA-R55A plasmid.

In the case of “GST-RSV-N (RSV nucleoprotein from pCDNA3.1-GST-RSV-N) (from UniProt P03418 1-391)”, the binding result in test [1] is recorded as “no binding”. With “HA-RSV-P (RSV phosphoprotein from pCDNA3.1-HA-RSV-P) (from UniProt P03421 1-241)”, the binding result in test [2] is given as “binds”.
